Source: patent publication US6852888B2, “Carboxylic acid derivatives” (Syngenta Crop Protection, Inc., priority 1998, dated 2005)
Some entries share one result that the patent states for a list of compounds.

Columns and labels:
Assay type in all cases: in vivo
Heliothis virescens = test: Ovicidal action against Heliothis virescens; conditions: 400 ppm aqueous acetone test solution, egg deposits immersed, evaluated 6 days later vs untreated controls
Nilaparvata lugens = Nilaparvata lugens on rice plants; conditions: 400 ppm spray on rice plants, larvae in the 2nd and 3rd stages, evaluated 21 days later
Aphis craccivora = test: Action against Aphis craccivora; conditions: 400 ppm spray on infested pea seedlings, 20° C., evaluated 3 and 6 days later
Procedure: Action against Aphis craccivora
Pea seedlings are infested with Aphis craccivora, subsequently sprayed with a spray mixture comprising 400 ppm of the test compound and incubated at 20° C. The evaluation is carried out 3 and 6 days later. The percentage reduction in population (% activity) is determined by comparing the number of dead aphids on the treated plants with that on the untreated plants.

SMILES | % reduction in hatching rate (effective) (Heliothis virescens) | percentage reduction in population (% activity) (Nilaparvata lugens) | percentage reduction in population (% activity) (Aphis craccivora)
O=C(CCCC=C(F)F)Nc1ccc(OC(F)(F)C(F)C(F)(F)F)cc1 (centres unmarked) [Compound 1.2] | more than 80% | more than 80% | 
O=C(CCCC=C(F)F)Nc1ccc(OC(F)(F)C(F)F)cc1 [Compound 1.3] | more than 80% |  | more than 80%
CC(C)c1cc(OC(F)(F)C(F)F)ccc1NC(=O)CCCC=C(F)F [Compound 1.4] | more than 80% | more than 80% | more than 80%
Cc1cc(OC(F)(F)C(F)F)ccc1NC(=O)CCCC=C(F)F [Compound 1.5] | more than 80% | more than 80% | more than 80%
O=C(CCCC=C(F)F)Nc1ccc(OC(F)(F)F)cc1 [Compound 1.6] | more than 80% |  | 
O=C(CCCC=C(F)F)Nc1cc(Cl)c(OC(F)(F)C(F)F)c(Cl)c1 [Compound 1.7] | more than 80% |  | 
Cc1cc(OC(F)F)ccc1NC(=O)CCCC=C(F)F [Compound 1.8] | more than 80% | more than 80% | more than 80%
Cc1cc(NC(=O)CCCC=C(F)F)ccc1OC(F)(F)C(F)F [Compound 1.9] | more than 80% | more than 80% | more than 80%
O=C(CCCC=C(F)F)Nc1cc(Cl)c(OC(F)(F)C(F)Cl)c(Cl)c1 (centres unmarked) [Compound 1.10] | more than 80% |  | 
O=C(CCCC=C(F)F)Nc1ccc(OC(F)(F)C(F)C(F)(F)F)c(Cl)c1 (centres unmarked) [Compound 1.11] |  | more than 80% | 
O=C(CCCC=C(F)F)Nc1cc(F)c(OC(F)(F)C(F)C(F)(F)F)cc1F (centres unmarked) [Compound 1.12] |  | more than 80% | 
O=C(CCCC=C(F)F)Nc1cccc(OC(F)(F)F)c1 [Compound 1.16] | more than 80% |  | 
O=C(CCCC=C(F)F)Nc1cccc(OC(F)(F)C(F)F)c1 [Compound 1.17] | more than 80% | more than 80% | more than 80%
O=C(CCCC=C(F)F)Nc1ccccc1OC(F)(F)F [Compound 1.18] | more than 80% |  | 
